Data as given in PubChem BioAssay AID1259425 (University of Nebraska Medical Center, 2018).
Here is one part, drawn at random, of about 14,000 reagents tested. Not all columns of the deposit are shown. No sequences are given here. The record does not give: the time to read-out.

Aim: 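Compare each knockdown with KSR1 silencing using changes in marker transcripts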 (primary screen)
Cells: HCT116 human colon cancer cells
Reagents: siRNA pool against human genes, 50 nM siRNA
Detection: 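mRNA of six signature genes measured together by branched-DNA assay after 50 nM siRNA pool, blank removed, divided by geometric mean of two housekeeping genes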
Scale: BNIP3L mRNA: higher = more BNIP3L transcript after knockdown; NDRG1 mRNA: higher = more NDRG1 transcript after knockdown

Which result is listed for RIT1 (Ras like without CAAX 1)?
BNIP3L mRNA, set 1: 0.0642; NDRG1 mRNA, set 1: 0.169

Which result is listed for ABCF3 (ATP binding cassette subfamily F member 3)?
BNIP3L mRNA, set 1: 0.489; NDRG1 mRNA, set 1: 0.448

For PPP1R3C (protein phosphatase 1 regulatory subunit 3C), how do the results read?
BNIP3L mRNA, set 1: 0.108; NDRG1 mRNA, set 1: 0.173

What did the screen give for POU3F4 (POU class 3 homeobox 4)?
BNIP3L mRNA, set 1: 0.13; NDRG1 mRNA, set 1: 0.073

With CDK10 (cyclin dependent kinase 10), what does the deposit list?
BNIP3L mRNA, set 1: 0.134; NDRG1 mRNA, set 1: 0.171

What did the screen give for ZNF658 (zinc finger protein 658)?
BNIP3L mRNA, set 1: 0.125; NDRG1 mRNA, set 1: 0.314

What did the screen give for CHIA (chitinase acidic)?
BNIP3L mRNA, set 1: 0.239; NDRG1 mRNA, set 1: 0.274

For BLTP3B (bridge-like lipid transfer protein family member 3B), what was measured?
BNIP3L mRNA, set 1: 0.224; NDRG1 mRNA, set 1: 0.2

For MAIP1 (matrix AAA peptidase interacting protein 1), how do the results read?
BNIP3L mRNA, set 1: 0.153; NDRG1 mRNA, set 1: 0.11

With CLTRN (collectrin, amino acid transport regulator), what does the deposit list?
BNIP3L mRNA, set 1: 0.107; NDRG1 mRNA, set 1: 0.152

For VPS37C (VPS37C subunit of ESCRT-I), what does the deposit list?
BNIP3L mRNA, set 1: 0.195; NDRG1 mRNA, set 1: 0.216

What is on record for EFNA5 (ephrin A5)?
BNIP3L mRNA, set 1: 0.0949; NDRG1 mRNA, set 1: 0.365

With TSPAN13 (tetraspanin 13), how do the results read?
BNIP3L mRNA, set 1: 0.11; NDRG1 mRNA, set 1: 0.23

What is on record for DKK4 (dickkopf Wnt signaling pathway inhibitor 4)?
BNIP3L mRNA, set 1: 0.0931; NDRG1 mRNA, set 1: 0.404

What is on record for MT-ND4 (mitochondrially encoded NADH dehydrogenase 4)?
BNIP3L mRNA, set 1: 0.0347; NDRG1 mRNA, set 1: 0.412

What did the screen give for TREM2 (triggering receptor expressed on myeloid cells 2)?
BNIP3L mRNA, set 1: 0.0831; NDRG1 mRNA, set 1: 0.179

For APH1B (aph-1B gamma-secretase subunit), what does the deposit list?
BNIP3L mRNA, set 1: 0.251; NDRG1 mRNA, set 1: 0.494

For NRTN (neurturin), what does the deposit list?
BNIP3L mRNA, set 1: 0.0734; NDRG1 mRNA, set 1: 0.211

How did the screen score SPOCK3?
BNIP3L mRNA, set 1: 0.146; NDRG1 mRNA, set 1: 0.262

For SPATC1L (spermatogenesis and centriole associated 1 like), what does the deposit list?
BNIP3L mRNA, set 1: 0.119; NDRG1 mRNA, set 1: 0.115

With AP2M1 (adaptor related protein complex 2 subunit mu 1), how do the results read?
BNIP3L mRNA, set 1: 0.215; NDRG1 mRNA, set 1: 0.66

What did the screen give for COX15 (cytochrome c oxidase assembly factor COX15)?
BNIP3L mRNA, set 1: 0.013; NDRG1 mRNA, set 1: 0.0378

What did the screen give for TRA2A (transformer 2 alpha homolog)?
BNIP3L mRNA, set 1: 0.119; NDRG1 mRNA, set 1: 0.105

For HSD17B8 (hydroxysteroid 17-beta dehydrogenase 8), how do the results read?
BNIP3L mRNA, set 1: 0.123; NDRG1 mRNA, set 1: 0.0582

What is on record for ARV1 (ARV1 fatty acid homeostasis modulator)?
BNIP3L mRNA, set 1: 0.0889; NDRG1 mRNA, set 1: 0.134

Which result is listed for FAH (fumarylacetoacetate hydrolase)?
BNIP3L mRNA, set 1: 0.289; NDRG1 mRNA, set 1: 0.301

How did the screen score RUSC1 (RUN and SH3 domain containing 1)?
BNIP3L mRNA, set 1: 0.154; NDRG1 mRNA, set 1: 0.149

For TLX2 (T cell leukemia homeobox 2), what was measured?
BNIP3L mRNA, set 1: 0.0455; NDRG1 mRNA, set 1: 0.153

With CCT2 (chaperonin containing TCP1 subunit 2), how do the results read?
BNIP3L mRNA, set 1: 0.173; NDRG1 mRNA, set 1: 1.27

What is on record for SIX1 (SIX homeobox 1)?
BNIP3L mRNA, set 1: 0.121; NDRG1 mRNA, set 1: 0.126

Which result is listed for DMRTC2 (DMRT like family C2)?
BNIP3L mRNA, set 1: 0.0798; NDRG1 mRNA, set 1: 0.317

For FRY (FRY microtubule binding protein), what does the deposit list?
BNIP3L mRNA, set 1: 0.198; NDRG1 mRNA, set 1: 0.167

Which result is listed for GABARAPL1 (GABA type A receptor associated protein like 1)?
BNIP3L mRNA, set 1: 0.0864; NDRG1 mRNA, set 1: 0.327

For CHRM1 (cholinergic receptor muscarinic 1), what was measured?
BNIP3L mRNA, set 1: 0.209; NDRG1 mRNA, set 1: 0.136

With IGFBP3 (insulin like growth factor binding protein 3), what was measured?
BNIP3L mRNA, set 1: 0.0546; NDRG1 mRNA, set 1: 0.275

For SP2 (Sp2 transcription factor), what was measured?
BNIP3L mRNA, set 1: 0.212; NDRG1 mRNA, set 1: 1.84

3 neighbouring entries from above, for reference:
TREM2 (triggering receptor expressed on myeloid cells 2): BNIP3L mRNA, set 1 = 0.0831; NDRG1 mRNA, set 1 = 0.179
APH1B (aph-1B gamma-secretase subunit): BNIP3L mRNA, set 1 = 0.251; NDRG1 mRNA, set 1 = 0.494
NRTN (neurturin): BNIP3L mRNA, set 1 = 0.0734; NDRG1 mRNA, set 1 = 0.211
